Source: the supplement of paper PMC8616043
Where a name gives a salt, the structure may show the parent alone. Some of the results follow. Single values are uncertain here, since repeats match poorly.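 The cells are human U-2 OS cells that stably carry a GFP sensor with a nuclear import signal and a classical export signal. They were transfected to make PR50, a 50-repeat proline–arginine dipeptide protein from the ALS/FTD gene C9ORF72. Each well's nuclear-minus-cytoplasm GFP signal was scaled from in-plate DMSO (low) to PR-only wells (high), then scored against the other test wells on the plate; compounds scoring well below zero were called hits that reverse the PR effect.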

Tested on: U-2 OS NCT-C biosensor cells expressing PR50
Assay: Z-score of normalised NCT-C biosensor translocation index in PR50-expressing cells; higher = more nuclear biosensor (more disrupted nuclear export)
Conditions: 3 µM; 24 h

SMILES | Z-score
CC(C(=O)O)c1ccc(C(=O)c2cccs2)cc1 (stereo unspecified) [Suprofen] | inactive: -0.89
COc1cc2ncnc(Nc3ccc(F)c(Cl)c3)c2cc1OCCCN1CCOCC1 [Gefitinib] | inactive: -1.28
CN1CCC[C@@H]1CCO[C@](C)(c1ccccc1)c1ccc(Cl)cc1 [Clemastine fumarate salt] | inactive: -0.498
CN1CCC[C@@H]1CCO[C@](C)(c1ccccc1)c1ccc(Cl)cc1 [Clemastine Fumarate] | inactive: 1.65
CC(C)[C@H](N)C(=O)OCC(CO)OCn1cnc2c(=O)[nH]c(N)nc21 (stereo partly specified) [Valganciclovir hydrochloride hydrate] | inactive: -0.213
O=C(c1ccc(OCCCc2c[nH]cn2)cc1)C1CC1 [Ciproxifan hydrochloride] | inactive: -0.782
CC[C@@H]([C@H](C)O)n1ncn(-c2ccc(N3CCN(c4ccc(OC[C@@H]5CO[C@@](Cn6cncn6)(c6ccc(F)cc6F)C5)cc4)CC3)cc2)c1=O [Posaconazole] | inactive: -0.407
CCCCC[C@H](O)/C=C/[C@H]1[C@H](O)CC(=O)[C@@H]1CCCCCCC(=O)O [Alprostadil] | inactive: 0.296
CCCCC[C@H](O)/C=C/[C@H]1[C@H](O)CC(=O)[C@@H]1CCCCCCC(=O)O [Prostaglandin E1] | inactive: -1.49
O=C(O)c1cccnc1C(=O)O [Quinolinic acid] | inactive: -0.0352
CC/C(=C(\c1ccccc1)c1ccc(OCCN(C)C)cc1)c1ccccc1 [Tamoxifen citrate] | inactive: -0.146
CC/C(=C(\c1ccccc1)c1ccc(OCCN(C)C)cc1)c1ccccc1 [Tamoxifen] | inactive: 0.274
CC/C(=C(\c1ccccc1)c1ccc(OCCN(C)C)cc1)c1ccccc1 [Tamoxifen Citrate] | inactive: 0.322
NCc1ccc(S(N)(=O)=O)cc1 [Mafenide·HCl] | inactive: 1.15
CC(C)(C)NCC(O)c1cc(O)cc(O)c1 (stereo unspecified) [Terbutaline hemisulfate] | inactive: 0.518
CC(C)(C)NCC(O)c1cc(O)cc(O)c1 (stereo unspecified) [Terbutaline Hemisulfate] | inactive: -0.596
O=C(O)CCCCC1CCSS1 (racemic) [(+-)-alpha-Lipoic Acid] | inactive: 0.47
CC[N+](CC)(CC)CCOc1cccc(OCC[N+](CC)(CC)CC)c1OCC[N+](CC)(CC)CC [Gallamine triethiodide] | inactive: -0.665
CCOC(=O)[N-]c1c[n+](N2CCOCC2)no1 [Molsidomine] | inactive: -0.0883
C=C(c1ccc(C(=O)O)cc1)c1cc2c(cc1C)C(C)(C)CCC2(C)C [Bexarotene] | inactive: 0.136
O=C(O)[C@H]1/C(=C/CO)O[C@@H]2CC(=O)N21 [Clavulanate Potassium] | inactive: 0.165
CC1=C(C/C=C(\C)CCC[C@H](C)CCC[C@H](C)CCCC(C)C)C(=O)c2ccccc2C1=O [Phytonadione] | inactive: 0.175

SMILES | Z-score
O=C(O)C1(C(=O)O)CCC1.[NH2-].[NH2-].[Pt+2] [Carboplatin] | inactive: 1.63
COC(=O)C(N)Cc1ccc(Cl)cc1 (racemic) [DL-p-  Chlorophenyl alanine methyl ester HCl] | inactive: -0.336
O=C(c1cncc(Br)c1)N1CCC(N2CCCC2)CC1 | inactive: 1.78
O=c1c(O)c(-c2ccc(O)c(O)c2)oc2cc(O)cc(O)c12 [Quercetin·2H2O] | inactive: -0.279
O=c1c(O)c(-c2ccc(O)c(O)c2)oc2cc(O)cc(O)c12 [Quercetin dihydrate] | inactive: -0.817
CC(C)Cc1ccc(C(C)C(=O)O)cc1 (stereo unspecified) [Ibuprofen] | inactive: 1.05
Nc1nc2[nH]cc(CCc3ccc(C(=O)N[C@@H](CCC(=O)O)C(=O)O)cc3)c2c(=O)[nH]1 [Pemetrexed Disodium] | inactive: -0.322
Nc1nc2[nH]cc(CCc3ccc(C(=O)N[C@@H](CCC(=O)O)C(=O)O)cc3)c2c(=O)[nH]1 [Pemetrexed disodium heptahydrate] | inactive: -0.0301
COCCc1ccc(OCC(O)CNC(C)C)cc1 (stereo unspecified) [Metoprolol Tartrate] | inactive: -0.218
OC[C@H]1O[C@@H](O[C@@H]2[C@@H](CO)OC(O)(CO)[C@H]2O)[C@H](O)[C@@H](O)[C@H]1O (mixture of isomers) [Lactulose] | inactive: 0.128
NCCS(=O)O [Hypotaurine] | inactive: -0.151
COc1cc(C(=O)O[C@H]2C/C(C)=C/CC/C(C)=C/[C@H](O)[C@@H]2C(C)C)ccc1O [Tschimganidin] | inactive: -0.032
CC[C@@H]1/C=C(\C)C[C@H](C)C[C@H](OC)[C@H]2O[C@@](O)(C(=O)C(=O)N3CCCC[C@H]3C(=O)O[C@H](/C(C)=C/[C@@H]3CC[C@H](Cl)[C@H](OC)C3)[C@H](C)[C@@H](O)CC1=O)[C@H](C)C[C@@H]2OC [Pimecrolimus] | inactive: -0.16
CC(C)NC[C@H](O)c1ccc(O)c(O)c1 [R(-)-Isoproterenol (+)-bitartrate] | inactive: 0.0432
O=C(O)c1cc(N(Cc2ccccc2O)Cc2ccccc2O)ccc1O [Lavendustin B] | inactive: -0.42
N[C@@H](C(=O)N[C@@H]1C(=O)N2C(C(=O)O)=C(Cl)CS[C@H]12)c1ccccc1 [Cefaclor] | inactive: 0.0724
CCN(c1cc(-c2ccc(CN3CCOCC3)cc2)cc(C(=O)NCc2c(C)cc(C)[nH]c2=O)c1C)C1CCOCC1 | active: -2.97
CN(C)[C@@H]1C(O)=C(C(N)=O)C(=O)[C@@]2(O)C(O)=C3C(=O)c4c(O)ccc(Cl)c4[C@@H](O)[C@H]3C[C@@H]12 [Demeclocycline·HCl] | inactive: 0.11
CN(C)[C@@H]1C(O)=C(C(N)=O)C(=O)[C@@]2(O)C(O)=C3C(=O)c4c(O)ccc(Cl)c4[C@@H](O)[C@H]3C[C@@H]12 [Demeclocycline hydrochloride] | inactive: -0.552
CC(N)C12CC3CC(CC(C3)C1)C2 (stereo unspecified) [Rimantadine·HCl] | inactive: 0.067
Nc1cc(-c2ccncc2)c[nH]c1=O [Amrinone] | inactive: 0.506
COc1ccc(C[C@@H]2c3cc(OC)c(OC)cc3CC[N@+]2(C)CCC(=O)OCCCCCOC(=O)CC[N@@+]2(C)CCc3cc(OC)c(OC)cc3[C@H]2Cc2ccc(OC)c(OC)c2)cc1OC [Cisatracurium Besylate] | inactive: 0.457

A portion taken from the entries so far:
SMILES | Z-score
O=c1c(O)c(-c2ccc(O)c(O)c2)oc2cc(O)cc(O)c12 [Quercetin dihydrate] | inactive: -0.817
CC(C)Cc1ccc(C(C)C(=O)O)cc1 (stereo unspecified) [Ibuprofen] | inactive: 1.05
Nc1nc2[nH]cc(CCc3ccc(C(=O)N[C@@H](CCC(=O)O)C(=O)O)cc3)c2c(=O)[nH]1 [Pemetrexed Disodium] | inactive: -0.322
Nc1nc2[nH]cc(CCc3ccc(C(=O)N[C@@H](CCC(=O)O)C(=O)O)cc3)c2c(=O)[nH]1 [Pemetrexed disodium heptahydrate] | inactive: -0.0301
COCCc1ccc(OCC(O)CNC(C)C)cc1 (stereo unspecified) [Metoprolol Tartrate] | inactive: -0.218
OC[C@H]1O[C@@H](O[C@@H]2[C@@H](CO)OC(O)(CO)[C@H]2O)[C@H](O)[C@@H](O)[C@H]1O (mixture of isomers) [Lactulose] | inactive: 0.128
NCCS(=O)O [Hypotaurine] | inactive: -0.151
COc1cc(C(=O)O[C@H]2C/C(C)=C/CC/C(C)=C/[C@H](O)[C@@H]2C(C)C)ccc1O [Tschimganidin] | inactive: -0.032
CC[C@@H]1/C=C(\C)C[C@H](C)C[C@H](OC)[C@H]2O[C@@](O)(C(=O)C(=O)N3CCCC[C@H]3C(=O)O[C@H](/C(C)=C/[C@@H]3CC[C@H](Cl)[C@H](OC)C3)[C@H](C)[C@@H](O)CC1=O)[C@H](C)C[C@@H]2OC [Pimecrolimus] | inactive: -0.16
CC(C)NC[C@H](O)c1ccc(O)c(O)c1 [R(-)-Isoproterenol (+)-bitartrate] | inactive: 0.0432
O=C(O)c1cc(N(Cc2ccccc2O)Cc2ccccc2O)ccc1O [Lavendustin B] | inactive: -0.42
N[C@@H](C(=O)N[C@@H]1C(=O)N2C(C(=O)O)=C(Cl)CS[C@H]12)c1ccccc1 [Cefaclor] | inactive: 0.0724

Next part

SMILES | Z-score
CCC(=O)OCC(=O)[C@@]1(OC(=O)CC)[C@H](C)C[C@H]2[C@H]3[C@H]([C@@H](O)C[C@@]21C)[C@@]1(C)C=CC(=O)C=C1C[C@H]3Cl [Alclometasone dipropionate] | inactive: -0.042
CN(CCOc1ccc(CC2SC(=O)NC2=O)cc1)c1ccccn1 (stereo unspecified) [Rosiglitazone] | inactive: -1.34
CN(C)CC[C@@H](c1ccc(Cl)cc1)c1ccccn1 [Dexchlorpheniramine Maleate] | inactive: -0.45
N=C(N)N/N=C/c1c(Cl)cccc1Cl [Guanabenz acetate] | inactive: -0.281
N=C(N)N/N=C/c1c(Cl)cccc1Cl [Guanabenz Acetate] | active: -2.36
NC(=O)[C@H](CCCN=C(N)CCl)NC(=O)c1ccccc1 [Cl-Amidine] | active: -2.21
CCCc1nc(C(C)(C)O)c(C(=O)O)n1Cc1ccc(-c2ccccc2-c2nnn[nH]2)cc1 [Olmesartan] | active: -2.05
CN(C)CCOC(=O)COc1ccc(Cl)cc1 [Centrophenoxine hydrochloride] | inactive: 0.474
Brc1c(NC2=NCCN2)ccc2nccnc12 | inactive: -0.0645
Brc1c(NC2=NCCN2)ccc2nccnc12 [Brimonidine] | inactive: -0.642
Nc1cccc2c1CN(C1CCC(=O)NC1=O)C2=O (stereo unspecified) [Lenalidomide] | inactive: 0.0706
Cc1cccc2c3c(ccc12)C1=C(C(=O)C3=O)C(C)CO1 (stereo unspecified) [Dihydrotanshinone] | inactive: -0.213
COc1ccc2[nH]c([S+]([O-])Cc3ncc(C)c(OC)c3C)nc2c1 (stereo unspecified) [Omeprazole] | inactive: -0.191
O=C1N(c2ccccc2)c2ccccc2C1(Cc1ccncc1)Cc1ccncc1 [Linopirdine] | inactive: -0.216
CCCn1c(=O)c2[nH]c(-c3ccc(S(=O)(=O)O)cc3)nc2n(CCC)c1=O [1,3-Dipropyl-8-p- sulfophenyl xanthine] | inactive: -0.0424
Cc1ccccc1N1C(=O)c2cc(S(N)(=O)=O)c(Cl)cc2NC1C (stereo unspecified) [Metolazone] | inactive: -0.367
CN(C)CCC(c1ccc(Br)cc1)c1ccccn1 (racemic) [(±)-  Brompheniramine maleate salt] | inactive: 3.13
OCCOCCN1CCN(C(c2ccccc2)c2ccc(Cl)cc2)CC1 (stereo unspecified) [Hydroxyzine Dihydrochloride] | inactive: 0.424
C=CC1=C(C(=O)O)N2C(=O)[C@@H](NC(=O)/C(=N\OCC(=O)O)c3csc(N)n3)[C@H]2SC1 [Cefixime] | inactive: 0.151
CCc1cccc2c3c([nH]c12)C(CC)(CC(=O)O)OCC3 (stereo unspecified) [Etodolac] | inactive: 0.0282
O=CN(O)CCCP(=O)(O)O [Fosmidomycin sodium salt hydrate] | inactive: -0.184
N=C(N)c1ccc(-c2ccc(-c3ccc(C(=N)N)cc3)o2)cc1 [Furamidine dihydrochloride] | inactive: -0.629
